Where a SMILES comes first, the peptide text is derived from it. The star is where a group is joined. βGlcNAc = CC(=O)N[C@@H]1[C@@H](O)[C@H](O)[C@@H](CO)O[C@H]1*; Stearoyl = CCCCCCCCCCCCCCCCCC(=O)*; Palmitoyl = CCCCCCCCCCCCCCCC(=O)*; Myristoyl = CCCCCCCCCCCCCC(=O)*
Tested on: human keratinocytes (HaCaT)
Experiment: MTT assay, cytotoxicity
Format: cell-based
Description: To evaluate the cytotoxicity of the test peptides (IC50), the classic MTT assay on 96-well plates was performed for human keratinocytes (HaCaT) which were acquired from the ATCC. The assay was based on colorimetric determination of the cell metabolic activity where the color intensity reflected the number of live cells that could be measured spectrophotometrically. The cell line was cultured in a Dulbecco’s modified Eagle Medium (Invitrogen) supplemented with 10% fetal bovine serum (v/v), 100 units/mL of penicillin, 100 μg/mL of streptomycin, and 2 mM L-glutamine and was kept at 37 °C in a humidified 5% CO2 incubator. Briefly, a day after plating of 500 cells per well, a series of concentrations (0.5–500 μg/mL) of the test compounds were applied. DMSO was added to the control cells at a final concentration of 1.0% (v/v), which was related to the maximum concentration of the solvent compounds used in the experiment. After 24 h of incubation at 37 °C (humidified 5% CO2 incubator) with the peptides, a medium containing 1 mg/mL of MTT was added to the wells up to a final concentration of 0.5 mg/mL. Subsequently, the plates were incubated at 37 °C for 4 h. Then, the medium was aspirated, and the formazan product was solubilized with DMSO. The background absorbance at 630 nm was subtracted from that at 570 nm for each well (Epoch, BioTek Instruments, Winooski, VT, USA). Six replicates were conducted for each concentration. All experiments were repeated at least twice and the resulting IC50 values were calculated with a GraFit 7 software (v. 7.0, Erithacus, Berkley, CA, USA).
The selectivity indexes were calculated for all the strains as IC50/MIC. According to IC50, in most cases, glycosylation caused only a slight decrease in toxicity. However, in contrast with SI calculated for HC50, the differences between USCLs and gUSCLs are not so distinct. […] Moreover, toxicity of USCLs and gUSCLs is high and exceeds their antimicrobial activity. The lipopetides were not selective against Gram-negative strains (K. pneumoniae, A. baumannii, P. aeruginosa, K. aerogenes) over human cells. A few USCLs were selective (SI > 1) against E. faecium and S. aureus with SI up to 1.87; and some gUSCLs were selective against E. faecium but not against S. aureus, with SI between 0.63 and 1.73. […] In this case, SI of gUSCLs was noticeably […] than that of corresponding parent USCLs (2.07, 1.99, 2.67 vs. 2.53, 2.36, 3.46, respectively). Selectivity indexes were plotted against adjusted retention time (Figures S15–S21). A moderate linear correlation was found in USCLs and K. pneumoniae, C. glabrata, and gUSCLs and K. pneumoniae, K. aerogenes (R^2 between 0.6064 and 0.6481). A relatively high linear correlation was obtained for USCLs and K. aerogenes (R^2 of 0.8214) and also for gUSCLs and C. glabrata (R^2 of 0.9223).

| Structure (SMILES) | Selectivity Index (SI), IC50/MIC (A. baumannii) | Selectivity Index (SI), IC50/MIC (C. glabrata) | Selectivity Index (SI), IC50/MIC (E. faecium) | Selectivity Index (SI), IC50/MIC (P. aeruginosa) | Selectivity Index (SI), IC50/MIC (S. aureus) | Selectivity Index (SI), IC50/MIC (K. aerogenes) | Selectivity Index (SI), IC50/MIC (K. pneumoniae) |
| --- | --- | --- | --- | --- | --- | --- | --- |
| CCCCCCCCCCCCCC(=O)N[C@@H](CO[C@@H]1O[C@H](CO)[C@@H](O)[C@H](O)[C@H]1NC(C)=O)C(=O)N[C@@H](CCCNC(=N)N)C(=O)N[C@@H](CCCNC(=N)N)C(N)=O [Peptide 10, C14-S(GlcNAc)RR-NH2] (Myristoyl-Ser(βGlcNAc)-Arg-Arg-NH2) | 0.25 | 0.13 | 1.00 | 0.13 | 0.50 | – | – |
| CCCCCCCCCCCCCCCC(=O)N[C@@H](CCCNC(=N)N)C(=O)N[C@@H](CO[C@@H]1O[C@H](CO)[C@@H](O)[C@H](O)[C@H]1NC(C)=O)C(=O)N[C@@H](CCCNC(=N)N)C(N)=O [Peptide 14, C16-RS(GlcNAc)R-NH2] (Palmitoyl-Arg-Ser(βGlcNAc)-Arg-NH2) | 0.44 | 0.88 | 0.88 | 0.44 | 0.88 | 0.22 | 0.11 |
| CCCCCCCCCCCCCCCC(=O)N[C@@H](CCCNC(=N)N)C(=O)N[C@@H](CCCNC(=N)N)C(=O)N[C@@H](CO)C(N)=O [Peptide 6, C16-RRS-NH2] (Palmitoyl-Arg-Arg-Ser-NH2) | 0.25 | 0.98 | 0.98 | 0.49 | 0.98 | 0.12 | 0.25 |
| CCCCCCCCCCCCCCCCCC(=O)N[C@@H](CCCNC(=N)N)C(=O)N[C@@H](CO[C@@H]1O[C@H](CO)[C@@H](O)[C@H](O)[C@H]1NC(C)=O)C(=O)N[C@@H](CCCNC(=N)N)C(N)=O [Peptide 17, C18-RS(GlcNAc)R-NH2] (Stearoyl-Arg-Ser(βGlcNAc)-Arg-NH2) | 0.59 | 2.36 | 1.18 | 0.30 | 0.59 | 0.30 | 0.59 |
| CCCCCCCCCCCCCCCC(=O)N[C@@H](CCCNC(=N)N)C(=O)N[C@@H](CCCNC(=N)N)C(=O)N[C@@H](CO[C@@H]1O[C@H](CO)[C@@H](O)[C@H](O)[C@H]1NC(C)=O)C(N)=O [Peptide 15, C16-RRS(GlcNAc)-NH2] (Palmitoyl-Arg-Arg-Ser(βGlcNAc)-NH2) | 0.16 | 0.32 | 0.65 | 0.08 | 0.32 | 0.02 | 0.02 |
| CCCCCCCCCCCCCC(=O)N[C@@H](CCCNC(=N)N)C(=O)N[C@@H](CO[C@@H]1O[C@H](CO)[C@@H](O)[C@H](O)[C@H]1NC(C)=O)C(=O)N[C@@H](CCCNC(=N)N)C(N)=O [Peptide 11, C14-RS(GlcNAc)R-NH2] (Myristoyl-Arg-Ser(βGlcNAc)-Arg-NH2) | 0.39 | 0.20 | 0.79 | 0.20 | 0.39 | – | – |
| CCCCCCCCCCCCCCCC(=O)N[C@@H](CO)C(=O)N[C@@H](CCCNC(=N)N)C(=O)N[C@@H](CCCNC(=N)N)C(N)=O [Peptide 4, C16-SRR-NH2] (Palmitoyl-Ser-Arg-Arg-NH2) | 0.13 | 1.01 | 0.50 | 0.25 | 0.50 | 0.25 | 0.01 |
| CCCCCCCCCCCCCCCC(=O)N[C@@H](CO[C@@H]1O[C@H](CO)[C@@H](O)[C@H](O)[C@H]1NC(C)=O)C(=O)N[C@@H](CCCNC(=N)N)C(=O)N[C@@H](CCCNC(=N)N)C(N)=O [Peptide 13, C16-S(GlcNAc)RR-NH2] (Palmitoyl-Ser(βGlcNAc)-Arg-Arg-NH2) | 0.33 | 0.33 | 0.66 | 0.33 | 0.66 | 0.02 | 0.04 |
| CCCCCCCCCCCCCC(=O)N[C@@H](CCCNC(=N)N)C(=O)N[C@@H](CO)C(=O)N[C@@H](CCCNC(=N)N)C(N)=O [Peptide 2, C14-RSR-NH2] (Myristoyl-Arg-Ser-Arg-NH2) | 0.23 | 0.47 | 1.87 | 0.23 | 1.87 | 0.03 | 0.03 |

From article PMC9855884, “Glycosylated Lipopeptides—Synthesis and Evaluation of Antimicrobial Activity and Cytotoxicity” (Biomolecules, 2023)
